Results: paper doi:10.1101/2022.11.10.516022
Where two headings read alike, the source gives them in different places. Results are given in words; binding and its absence hold for the method and conditions named. In cells and extracts the contact can be indirect. Some entries that bind do so weakly or less than the wild type. For some assays here: Sequences can lack the tags named with a protein.

T1: Myc-tagged full-length Plin1 (F-Plin1) (UniProt Q8CGN5)
T1 sequence: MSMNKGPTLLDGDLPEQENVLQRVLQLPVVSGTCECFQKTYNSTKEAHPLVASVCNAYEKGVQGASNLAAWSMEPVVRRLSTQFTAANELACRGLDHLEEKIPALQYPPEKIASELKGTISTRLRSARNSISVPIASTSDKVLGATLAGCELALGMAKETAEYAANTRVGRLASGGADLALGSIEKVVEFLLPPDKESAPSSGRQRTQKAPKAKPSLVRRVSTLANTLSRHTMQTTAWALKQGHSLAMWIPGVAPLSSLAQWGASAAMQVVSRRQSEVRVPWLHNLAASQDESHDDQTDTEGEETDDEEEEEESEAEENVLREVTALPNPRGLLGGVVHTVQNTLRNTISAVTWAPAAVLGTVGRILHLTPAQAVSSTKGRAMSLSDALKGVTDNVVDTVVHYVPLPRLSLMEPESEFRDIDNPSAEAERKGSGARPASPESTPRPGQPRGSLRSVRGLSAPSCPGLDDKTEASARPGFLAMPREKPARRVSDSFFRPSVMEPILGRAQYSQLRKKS

T2: Plin1 transfected into HEK293 cells (UniProt Q8CGN5)
T2 sequence: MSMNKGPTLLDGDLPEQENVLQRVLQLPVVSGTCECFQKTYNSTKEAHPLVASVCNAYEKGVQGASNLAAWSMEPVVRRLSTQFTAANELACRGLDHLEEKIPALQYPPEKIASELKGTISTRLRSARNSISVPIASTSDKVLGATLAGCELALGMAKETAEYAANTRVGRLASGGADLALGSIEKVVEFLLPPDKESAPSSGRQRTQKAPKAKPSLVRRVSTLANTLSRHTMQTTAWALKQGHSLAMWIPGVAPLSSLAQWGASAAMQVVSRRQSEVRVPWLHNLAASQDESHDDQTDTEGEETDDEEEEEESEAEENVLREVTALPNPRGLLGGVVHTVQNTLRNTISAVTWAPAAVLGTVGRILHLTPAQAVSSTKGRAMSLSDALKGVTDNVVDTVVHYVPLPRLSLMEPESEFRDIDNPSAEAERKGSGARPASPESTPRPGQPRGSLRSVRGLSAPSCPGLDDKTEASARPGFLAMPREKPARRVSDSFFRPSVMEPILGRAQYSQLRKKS

T3: Plin1SD (Plin1 S81, S222, S276 mutated to aspartate) (UniProt Q8CGN5)
T3 sequence: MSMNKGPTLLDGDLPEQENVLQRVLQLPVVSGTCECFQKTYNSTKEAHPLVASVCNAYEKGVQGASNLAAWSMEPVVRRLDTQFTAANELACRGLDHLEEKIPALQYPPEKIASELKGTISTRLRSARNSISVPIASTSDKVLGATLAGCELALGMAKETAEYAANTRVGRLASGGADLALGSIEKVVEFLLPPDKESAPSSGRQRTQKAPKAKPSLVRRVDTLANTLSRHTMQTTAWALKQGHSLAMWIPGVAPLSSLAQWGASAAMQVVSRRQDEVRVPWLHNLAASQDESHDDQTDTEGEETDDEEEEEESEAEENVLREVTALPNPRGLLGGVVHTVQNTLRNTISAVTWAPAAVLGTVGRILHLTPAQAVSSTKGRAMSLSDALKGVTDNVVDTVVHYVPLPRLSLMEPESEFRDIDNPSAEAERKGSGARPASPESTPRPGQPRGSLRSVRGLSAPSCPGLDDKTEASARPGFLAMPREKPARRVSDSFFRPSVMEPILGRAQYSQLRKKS

T4: endogenous Perilipin 1 (Plin1) (mouse (endogenous in WAT and 3T3-L1 adipocytes)) (UniProt Q8CGN5)
T4 sequence: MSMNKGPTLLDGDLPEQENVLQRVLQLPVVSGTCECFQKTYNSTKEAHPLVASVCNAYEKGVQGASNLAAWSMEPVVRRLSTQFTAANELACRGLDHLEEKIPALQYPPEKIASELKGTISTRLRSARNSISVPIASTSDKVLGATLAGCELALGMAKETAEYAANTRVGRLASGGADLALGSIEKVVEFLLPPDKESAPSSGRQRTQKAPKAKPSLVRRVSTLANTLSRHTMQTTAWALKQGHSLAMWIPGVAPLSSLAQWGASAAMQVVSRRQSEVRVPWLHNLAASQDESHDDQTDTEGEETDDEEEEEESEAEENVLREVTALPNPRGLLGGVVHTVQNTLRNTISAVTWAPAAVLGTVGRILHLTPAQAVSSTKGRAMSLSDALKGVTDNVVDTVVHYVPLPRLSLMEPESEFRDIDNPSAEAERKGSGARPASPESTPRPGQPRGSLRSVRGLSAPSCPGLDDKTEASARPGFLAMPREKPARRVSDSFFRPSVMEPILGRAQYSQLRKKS


How the values were obtained:
Assay in all cases: co-IP
[1] = target: T1, Myc-tagged full-length Plin1 (F-Plin1)
[2] = target: T2, Plin1 transfected into HEK293 cells
[3] = target: T3, Plin1SD (Plin1 S81, S222, S276 mutated to aspartate)
[4] = target: T4, endogenous Perilipin 1 (Plin1) (mouse (endogenous in WAT and 3T3-L1 adipocytes))
[5] = target: T4, endogenous Perilipin 1 (Plin1) (mouse (endogenous in WAT and 3T3-L1 adipocytes)); remark: listed apart in the source

Binder	binding [1]	binding [2]	binding [3]	binding [4]	binding [5]
HSL transfected into HEK293 / 293FT cells (enzyme, UniProt P54310 1-759) MDLRTMTQSLVTLAEDNMAFFSSQGPGETARRLSNVFAGVREQALGLEPTLGQLLGVAHHFDLDTETPANGYRSLVHTARCCLAHLLHKSRYVASNRKSIFFRASHNLAELEAYLAALTQLRAMAYYAQRLLTINRPGVLFFEGDEGLTADFLQEYVTLHKGCFYGRCLGFQFTPAIRPFLQTLSIGLVSFGEHYKRNETGLSVTASSLFTGGRFAIDPELRGAEFERIIQNLDVHFWKAFWNITEIEVLSSLANMASTTVRVSRLLSLPPEAFEMPLTSDPRLTVTISPPLAHTGPAPVLARLISYDLREGQDSKVLNSLAKSEGPRLELRPRPHQAPRSRALVVHIHGGGFVAQTSKSHEPYLKNWAQELGVPIFSIDYSLAPEAPFPRALEECFFAYCWAVKHCDLLGSTGERICLAGDSAGGNLCITVSLRAAAYGVRVPDGIMAAYPVTTLQSSASPSRLLSLMDPLLPLSVLSKCVSAYSGTEAEDHFDSDQKALGVMGLVQRDTSLFLRDLRLGASSWLNSFLELSGRKPQKTTSPTAESVRPTESMRRSVSEAALAQPEGLLGTDTLKKLTIKDLSNSEPSDSPEMSQSMETLGPSTPSDVNFFLRPGNSQEEAEAKDEVRPMDGVPRVRAAFPEGFHPRRSSQGVLHMPLYTSPIVKNPFMSPLLAPDSMLKTLPPVHLVACALDPMLDDSVMFARRLRDLGQPVTLKVVEDLPHGFLSLAALCRETRQATEFCVQRIRLILTPPAAPLN	binds	binds	binds	–	–
endogenous hormone-sensitive lipase (HSL) (enzyme, UniProt P54310 1-759) MDLRTMTQSLVTLAEDNMAFFSSQGPGETARRLSNVFAGVREQALGLEPTLGQLLGVAHHFDLDTETPANGYRSLVHTARCCLAHLLHKSRYVASNRKSIFFRASHNLAELEAYLAALTQLRAMAYYAQRLLTINRPGVLFFEGDEGLTADFLQEYVTLHKGCFYGRCLGFQFTPAIRPFLQTLSIGLVSFGEHYKRNETGLSVTASSLFTGGRFAIDPELRGAEFERIIQNLDVHFWKAFWNITEIEVLSSLANMASTTVRVSRLLSLPPEAFEMPLTSDPRLTVTISPPLAHTGPAPVLARLISYDLREGQDSKVLNSLAKSEGPRLELRPRPHQAPRSRALVVHIHGGGFVAQTSKSHEPYLKNWAQELGVPIFSIDYSLAPEAPFPRALEECFFAYCWAVKHCDLLGSTGERICLAGDSAGGNLCITVSLRAAAYGVRVPDGIMAAYPVTTLQSSASPSRLLSLMDPLLPLSVLSKCVSAYSGTEAEDHFDSDQKALGVMGLVQRDTSLFLRDLRLGASSWLNSFLELSGRKPQKTTSPTAESVRPTESMRRSVSEAALAQPEGLLGTDTLKKLTIKDLSNSEPSDSPEMSQSMETLGPSTPSDVNFFLRPGNSQEEAEAKDEVRPMDGVPRVRAAFPEGFHPRRSSQGVLHMPLYTSPIVKNPFMSPLLAPDSMLKTLPPVHLVACALDPMLDDSVMFARRLRDLGQPVTLKVVEDLPHGFLSLAALCRETRQATEFCVQRIRLILTPPAAPLN	–	–	–	binds	binds
